The source of these data is paper doi:10.1101/2022.01.10.475683.

These are yes or no findings as the source states them, for the method shown. Binding can be weak; no strength is given. For some assays here: Binding seen in cells or lysates may run through a third protein. For some assays here: Tags and fused reporters may be left off the sequences shown.

For assay [1], the target named is T1, OsTPR3, full length, pGBKT7-OsTPR3 (rice) (UniProt Q10NY2).
T1 sequence: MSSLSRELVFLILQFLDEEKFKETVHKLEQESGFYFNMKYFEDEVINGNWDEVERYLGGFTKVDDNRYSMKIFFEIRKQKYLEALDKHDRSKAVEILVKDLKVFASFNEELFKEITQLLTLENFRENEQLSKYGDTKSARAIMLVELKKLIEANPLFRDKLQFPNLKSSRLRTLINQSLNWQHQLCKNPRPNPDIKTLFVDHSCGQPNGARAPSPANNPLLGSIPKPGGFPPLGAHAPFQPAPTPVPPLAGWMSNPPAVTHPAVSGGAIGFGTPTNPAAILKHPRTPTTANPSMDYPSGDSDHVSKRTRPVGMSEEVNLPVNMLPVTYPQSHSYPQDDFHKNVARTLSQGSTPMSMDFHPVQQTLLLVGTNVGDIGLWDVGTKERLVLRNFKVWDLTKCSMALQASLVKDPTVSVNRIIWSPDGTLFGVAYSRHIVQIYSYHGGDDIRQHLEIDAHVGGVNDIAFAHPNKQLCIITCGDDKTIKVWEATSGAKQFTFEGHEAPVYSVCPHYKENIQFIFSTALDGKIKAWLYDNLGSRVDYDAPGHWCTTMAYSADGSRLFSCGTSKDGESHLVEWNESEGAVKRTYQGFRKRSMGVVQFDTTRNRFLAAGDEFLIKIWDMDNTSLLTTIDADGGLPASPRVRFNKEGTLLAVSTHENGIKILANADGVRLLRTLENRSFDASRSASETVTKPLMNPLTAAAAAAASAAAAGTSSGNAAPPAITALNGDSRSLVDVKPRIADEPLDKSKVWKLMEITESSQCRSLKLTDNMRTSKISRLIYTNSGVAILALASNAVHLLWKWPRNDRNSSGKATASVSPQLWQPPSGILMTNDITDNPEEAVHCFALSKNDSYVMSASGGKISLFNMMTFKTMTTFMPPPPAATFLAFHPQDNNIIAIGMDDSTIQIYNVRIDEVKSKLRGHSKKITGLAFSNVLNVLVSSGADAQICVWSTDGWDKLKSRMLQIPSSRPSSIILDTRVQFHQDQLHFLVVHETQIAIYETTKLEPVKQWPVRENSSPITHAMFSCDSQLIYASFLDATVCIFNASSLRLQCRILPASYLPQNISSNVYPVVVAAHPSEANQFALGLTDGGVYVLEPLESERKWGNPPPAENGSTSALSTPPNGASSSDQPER
Put plainly: two-hybrid.

Assay [2] has as its target T2, OsTPR1, full length, pGBKT7-OsTPR1 (rice) (UniProt Q5NBT9).
T2 sequence: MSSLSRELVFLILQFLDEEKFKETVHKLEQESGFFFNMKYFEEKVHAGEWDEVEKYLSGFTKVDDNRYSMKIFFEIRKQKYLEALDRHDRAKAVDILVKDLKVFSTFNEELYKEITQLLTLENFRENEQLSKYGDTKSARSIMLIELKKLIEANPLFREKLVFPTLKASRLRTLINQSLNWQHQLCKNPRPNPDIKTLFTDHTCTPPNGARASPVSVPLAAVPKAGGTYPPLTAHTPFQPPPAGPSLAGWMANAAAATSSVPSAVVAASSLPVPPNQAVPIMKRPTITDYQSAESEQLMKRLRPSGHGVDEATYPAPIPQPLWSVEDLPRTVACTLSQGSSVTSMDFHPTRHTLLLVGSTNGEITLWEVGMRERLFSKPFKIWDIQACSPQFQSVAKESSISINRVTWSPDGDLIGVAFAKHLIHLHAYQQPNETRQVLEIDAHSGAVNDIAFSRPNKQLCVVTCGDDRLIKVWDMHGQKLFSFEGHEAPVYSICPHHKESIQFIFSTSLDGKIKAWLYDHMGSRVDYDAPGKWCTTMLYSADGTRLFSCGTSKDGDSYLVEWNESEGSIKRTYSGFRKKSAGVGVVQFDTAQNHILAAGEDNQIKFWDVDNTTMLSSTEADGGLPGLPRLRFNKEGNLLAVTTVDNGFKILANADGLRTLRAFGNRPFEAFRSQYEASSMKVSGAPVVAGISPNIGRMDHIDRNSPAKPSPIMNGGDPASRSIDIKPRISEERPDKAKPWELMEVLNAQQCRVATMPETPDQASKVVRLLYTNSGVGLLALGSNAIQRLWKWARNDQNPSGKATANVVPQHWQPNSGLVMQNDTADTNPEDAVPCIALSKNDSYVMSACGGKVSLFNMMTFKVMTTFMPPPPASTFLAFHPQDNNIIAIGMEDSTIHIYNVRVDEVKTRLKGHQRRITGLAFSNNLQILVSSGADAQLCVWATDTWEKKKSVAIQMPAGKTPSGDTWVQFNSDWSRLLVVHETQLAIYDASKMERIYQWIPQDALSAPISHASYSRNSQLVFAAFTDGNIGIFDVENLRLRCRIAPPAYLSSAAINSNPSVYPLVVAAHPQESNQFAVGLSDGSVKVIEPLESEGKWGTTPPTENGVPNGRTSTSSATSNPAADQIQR
Put plainly: two-hybrid.

The next assay concerns the target T3, nYFP-OsTPR3 (rice) (UniProt Q10NY2).
T3 sequence: T1 sequence
Put plainly: split reporter.

The next assay deals with T4, nYFP-OsTPR1 (rice) (UniProt Q5NBT9).
T4 sequence: T2 sequence
Put plainly: split reporter.

For “C-WL1 (C-terminal EAR motif of WL1), pGADT7-C-WL1 (rice) (domain or fragment)”, the binding entry in assay [1] and in assay [2] was “binds” throughout.

Turning to mutated WL1 protein (rice), the binding result in assay [1] and in assay [2] was “binds” each time.

Regarding WL1-cYFP (rice), the binding entry with nYFP-OsTPR3 (rice) and in the assay with nYFP-OsTPR1 (rice) was “binds” throughout.

For the substance “N-WL1 (N-terminal EAR motif of WL1), pGADT7-N-WL1 (rice) (domain or fragment)”, the binding entry in assay [1] and in assay [2] was “binds” throughout.
